Test results taken from US8882853B2, “Environmentally-friendly solvent for washing and dry-cleaning, and laundry composition including the same” (LG Household & Health Care Ltd., priority 2011, dated 2014).

Experiments:
Settings in all cases: shaken 30 times, left for 3 minutes, sun drying 8 hours at 23 to 25° C., color difference meter
[1] = Effectiveness in cleaning oil (water)-based contaminants, JIS fabric
[2] = Effectiveness in cleaning oil (water)-based contaminants, 10D fabric
[3] = Effectiveness in cleaning oil (water)-based contaminants, 20D fabric

With CC1(C)OCC(CO)O1 (stereo not drawn) [Example 1, Acetone Glycerol] the “Cleaning ability (change in the value of WB), JIS” value [1] was 44.97, the “Cleaning ability (change in the value of WB), 10D” value [2] was 23.62 and the “Cleaning ability (change in the value of WB), 20D” value [3] was 25.22.
In the case of COCC(CO)OC (stereo not drawn) [Com. Ex. 6, 2,3-Dimethoxy-1-propanol], the “Cleaning ability (change in the value of WB), JIS” value [1] is reported as 32.92, the “Cleaning ability (change in the value of WB), 10D” value [2] is reported as 12.88 and the “Cleaning ability (change in the value of WB), 20D” value [3] is reported as 12.99.
With O [Com. Ex. 1, Water] the “Cleaning ability (change in the value of WB), JIS” value [1] was 14.6, the “Cleaning ability (change in the value of WB), 10D” value [2] was 1.23 and the “Cleaning ability (change in the value of WB), 20D” value [3] was 2.36.
In the case of CCC1(C)OCC(CO)O1 (stereo not drawn) [Example 2, Glycerol-Methyl Ethyl Ketone Ketal], the “Cleaning ability (change in the value of WB), JIS” value [1] is reported as 42.85, the “Cleaning ability (change in the value of WB), 10D” value [2] is reported as 28.54 and the “Cleaning ability (change in the value of WB), 20D” value [3] is reported as 24.31.
With CCCC1OCC(CO)O1 (stereo not drawn) [Example 4, Glycerol-Butylaldehyde Acetal] the “Cleaning ability (change in the value of WB), JIS” value [1] was 40.62, the “Cleaning ability (change in the value of WB), 10D” value [2] was 21.38 and the “Cleaning ability (change in the value of WB), 20D” value [3] was 27.6.
In the case of ClC(Cl)=C(Cl)Cl [Com. Ex. 2, Perchloroethylene], the “Cleaning ability (change in the value of WB), JIS” value [1] is reported as 53.13, the “Cleaning ability (change in the value of WB), 10D” value [2] is reported as 35.41 and the “Cleaning ability (change in the value of WB), 20D” value [3] is reported as 30.05.
In the case of CC(C)CC1(C)OCC(CO)O1 (stereo not drawn) [Example 3, Glycerol-Methyl Isobuthyl Ketone Ketal], the “Cleaning ability (change in the value of WB), JIS” value [1] is reported as 45.13, the “Cleaning ability (change in the value of WB), 10D” value [2] is reported as 24.32 and the “Cleaning ability (change in the value of WB), 20D” value [3] is reported as 22.15.
In the case of C[Si]1(C)O[Si](C)(C)O[Si](C)(C)O[Si](C)(C)O[Si](C)(C)O1 [Com. Ex. 4, Decamethyl-cyclopentasiloxane], the “Cleaning ability (change in the value of WB), JIS” value [1] is reported as 22.68, the “Cleaning ability (change in the value of WB), 10D” value [2] is reported as 13.09 and the “Cleaning ability (change in the value of WB), 20D” value [3] is reported as 14.69.
